The target in the assay is T1, Biglycan (human) (UniProt P21810).
T1 sequence: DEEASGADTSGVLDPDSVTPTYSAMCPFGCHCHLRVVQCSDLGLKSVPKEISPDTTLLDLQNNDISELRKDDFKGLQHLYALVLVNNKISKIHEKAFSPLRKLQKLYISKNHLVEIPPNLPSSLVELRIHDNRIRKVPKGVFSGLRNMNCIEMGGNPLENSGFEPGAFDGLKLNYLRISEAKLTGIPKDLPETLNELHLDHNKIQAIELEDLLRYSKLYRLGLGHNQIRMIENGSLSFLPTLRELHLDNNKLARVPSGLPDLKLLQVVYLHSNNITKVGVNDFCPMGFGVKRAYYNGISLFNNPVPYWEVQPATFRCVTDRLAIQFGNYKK
The experiment in a line: co-IP; HGC-27 cell lysate (co-IP kit, ice-cold lysis buffer); immunoprecipitates of BGN and input (20%) separated by SDS-PAGE, Western blotting. (In general: A western blot detects proteins with antibodies after separation by electrophoresis.)

Amino acid sequences for entries named in this document (tags omitted).
UniProt Q969H0: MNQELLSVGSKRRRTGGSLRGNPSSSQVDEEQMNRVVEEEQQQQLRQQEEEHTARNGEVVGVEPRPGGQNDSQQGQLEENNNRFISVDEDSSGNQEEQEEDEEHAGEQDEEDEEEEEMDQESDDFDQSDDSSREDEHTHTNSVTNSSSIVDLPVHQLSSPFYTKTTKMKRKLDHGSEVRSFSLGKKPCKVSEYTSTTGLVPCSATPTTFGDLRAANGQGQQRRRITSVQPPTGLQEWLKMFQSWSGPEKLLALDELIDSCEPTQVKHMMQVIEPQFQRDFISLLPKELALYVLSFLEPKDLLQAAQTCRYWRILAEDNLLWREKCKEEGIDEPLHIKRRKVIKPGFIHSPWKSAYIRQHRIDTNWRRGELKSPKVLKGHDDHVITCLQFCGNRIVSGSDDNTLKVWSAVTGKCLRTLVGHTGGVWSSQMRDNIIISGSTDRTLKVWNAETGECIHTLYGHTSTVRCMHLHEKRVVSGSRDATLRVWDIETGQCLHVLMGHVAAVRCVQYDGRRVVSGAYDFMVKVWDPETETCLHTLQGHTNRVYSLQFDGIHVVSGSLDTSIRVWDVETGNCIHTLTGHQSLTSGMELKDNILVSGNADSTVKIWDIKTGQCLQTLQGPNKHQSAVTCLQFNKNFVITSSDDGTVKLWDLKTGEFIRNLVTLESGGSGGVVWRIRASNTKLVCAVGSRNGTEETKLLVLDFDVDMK

No constants are given. Whether binding was seen depends on the method and setting. Binding seen in cells or lysates may run through a third protein. Some entries that bind do so weakly or less than the wild type.

Take “F-box and WD repeat domain-containing 7 (from UniProt Q969H0 1-707)”: the binding entry is on record as “binds”.
